Source: PubChem BioAssay AID1794845 (National Center for Advancing Translational Sciences (NCATS), 2023)
Screen size: about 6,900 compounds; fewer than 10 were called active. The call rests on the fitted dose curve; in most records, active means well fitted curve in the direction sought with a large enough effect; inconclusive means small, poorly fitted or top-dose-only effect, or another doubt; inactive means no such curve, though single readings can be large or run the other way. This is one part of the list.

Chains of the proteins cited; added tags and fusions are not shown. Lines headed by an entry give the natural chain unless they say otherwise; changes in a name come on top.
UniProt C7C422: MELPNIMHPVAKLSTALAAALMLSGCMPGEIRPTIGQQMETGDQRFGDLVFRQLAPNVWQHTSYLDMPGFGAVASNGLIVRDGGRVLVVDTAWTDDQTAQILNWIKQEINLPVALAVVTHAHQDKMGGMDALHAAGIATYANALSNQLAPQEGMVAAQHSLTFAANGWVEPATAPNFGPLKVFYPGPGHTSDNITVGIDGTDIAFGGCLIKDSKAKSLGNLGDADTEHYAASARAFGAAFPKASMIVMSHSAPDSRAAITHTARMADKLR

Molecular target: Metallo-beta-lactamase type 2 (Klebsiella pneumoniae) (UniProt C7C422)
Test: qHTS to identify inhibitors of the New Delhi Metallo-beta-lactamase (NDM): primary screen against the NCATS Gemini Collection; further: % of control where 0% means no effect
Conditions: NDM-1 enzyme, meropenem hydrolysis, absorbance 300 nm; at 38.4 µM (top of the series) unless noted
Outline: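 Meropenem hydrolysis (50 uM final) by 2 nM NDM-1 read as 300 nm absorbance after 30 min, following >30 min compound–enzyme preincubation in HEPES pH 7.0 with 1 uM ZnSO4 and 0.01% Tween20.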

Activity % (negative = inhibition), inactive:
Cc1cccc2c1O[C@H]1[C@H](CO)CN([S+](=O)([O-])c3cccs3)[C@@H]21 4.48%
CN(C(=O)CC(c1ccccc1)c1ccc(Cl)cc1)C1CCOCC1 (configuration not stated) -0.087%
O=C(NCCc1nccs1)c1cn(CCN2CCNCC2)nn1 1.04%
NC(=O)[C@@H](Cc1c[nH]c2ccccc12)NC(=O)[C@@H]1C[C@@H](NS(=O)(=O)c2cccs2)CCN1C(=O)[C@@H](O)[C@H](O)C(=O)O 1.91%
CCc1csc(CNC(=O)c2ccc(N(C)Cc3cnn(C)c3)nc2)n1 12.2%
CCC1Oc2ccc(NS(=O)(=O)c3ccc(Cl)cc3)cc2CN(Cc2ccc(F)cc2)C1=O (configuration not stated) 10.7%
CCNc1ncnc2sc3c(c12)CCN(C(=O)COC)C3 10.2%
CC[C@H]1CN(C(C)=O)CC[C@H]1CC(=O)Nc1ccccc1 -5.07% [at 77.1 µM]
COc1ccc(-c2cc(-c3ccncc3)cn3cncc23)cc1 2.77% [at 57.5 µM]
O=C([C@@H]1C[C@H](F)CN1S(=O)(=O)Cc1ccccc1F)N1CCc2ccccc2C1 4.95%
NC(=O)NCC(=O)N1CCc2cc(S(=O)(=O)NCc3cccs3)ccc2C1 7.6%
CN(Cc1ccc(OC(F)(F)F)cc1)Cc1cccc(C(F)(F)F)c1 60.6%
O=C(NC[C@H]1OC[C@@H](NCc2cccnc2)[C@@H]1O)N1CCOCC1 29.6% [at 57.5 µM]
O=C1CC2(CCN(C(=O)c3ccc(Cl)cc3)CC2)Oc2cc(Cl)ccc21 1.59%
Cc1cccc(C(=O)N2CCOC(CCCc3ccccc3)C2)n1 (configuration not stated) 3.72%
O=C(Nc1ccc2c(c1)CN(CCc1ccc(F)cc1)C(=O)CO2)c1c(F)cccc1F 2.48%
O=C(CCc1ccccc1)N1CCC(Cc2nncn2-c2ccccc2)C1 (configuration not stated) -2.79%
CN(CCNC(=O)C1CCCCC(=O)N1Cc1ccccc1)C1CCCCC1 (configuration not stated) -0.859%
CCc1cc(=O)n(CC(=O)NCCc2ccc(Cl)cc2)c(N2CCOCC2)n1 3.09%
CN1[C@H](C(=O)O)C[C@H](C(=O)NCC2(CO)CCCC2)[C@@H]1c1ccccc1F 11.6%
COc1ccc(NC(=O)COc2ccc(NC(=O)C3CC3)cn2)cc1 -3.27%
COc1cccc(CN2CCN(C(=O)c3cnc4ccccn4c3=O)CC2=O)c1 14.3%
N#Cc1ccc(C(=O)Nc2ccc(=O)n3c2[C@@H]2C[C@@H](CN(C(=O)c4ccc(F)cc4)C2)C3)cc1 14.5%
CC(C)N1CCN(C(=O)c2cc3cn(C4CC4)cc3s2)CC1 9.44%
CN1CCN(C[C@@H]2CN(C(=O)CCCc3cccs3)C[C@@H]2CO)CC1 -0.194%
Cc1ccc(C)c(C(=O)N[C@@H]2CN(c3ccncn3)C[C@H]2CO)c1 -0.121%
O=C(COc1ccccc1)N[C@H]1CO[C@H]2[C@@H]1OC[C@@H]2n1nnnc1Oc1ccc2c(c1)OCO2 3.43%
COc1ccc(C(=O)N[C@H]2CO[C@H]3[C@@H]2OC[C@@H]3Nc2nccc(-c3cccs3)n2)cc1 1.61%
O=C(NC[C@H]1OC[C@@H](NC2CCOCC2)[C@@H]1O)N1CCOCC1 -2.2% [at 57.5 µM]
O=C([C@@H]1C[C@H](Oc2ccccc2)CN1C(=O)Nc1ccccc1F)N1CCOCC1 20.7%
Cn1nc(C2CCN(C(=O)NCc3ccccc3)CC2)c2c1CCOC2 -1.25%
CCCCCC(=O)N1CC[C@@H](CC(=O)N(C)CC#N)[C@@H](CC)C1 0.472% [at 57.5 µM]
O=C(c1ccc(=O)[nH]n1)N1CCCC(c2ccn[nH]2)C1 (configuration not stated) 2.53%
CN(C)S(=O)(=O)N1CCOCCNC(=O)[C@@H]2CCC[C@@H]21 9.52%
O=C(NCc1ccc(F)cc1)c1ccc(N2CC3CC(C2)[C@H]2CCCC(=O)N2C3)nc1 (some centres not stated) 13.2%
Cc1ccc(-c2ccc3nnc(CNC(=O)COc4cccc(C)c4)n3n2)cc1 3.39%
CCOc1ccc(CN2CCN(C/C=C/c3ccccc3OC)CC2CCO)cc1 (configuration not stated) 7.82%
CC[C@@]1(C(=O)O)C[C@H](C(=O)N(C)CCCO)[C@H](c2ccc(OC)cc2)N1C -9.63%
COc1ccccc1C(=O)N1CCN(c2nccc(Nc3ccccc3Cl)n2)CC1 2.58%
C[C@@]1(O)CCN(Cc2cnc(NCC(=O)O)nc2)C[C@@H]1O 3.51%
COc1nccc(N2CCC(CC(=O)NCCCN3CCCC3=O)CC2)n1 1.41%
O=C(Nc1cccc(-c2ccc(N3CCOCC3)nn2)c1)Nc1ccc(F)cc1F 2.78%
CC(C)C(=O)N1CCN(c2nc3c(s2)CC(C(=O)NCc2ccco2)CC3)CC1 (configuration not stated) 4.14%
CC(C)CN1C2CCC1CN(C(=O)Nc1ccccc1F)C2 4.74%
O=C(c1ccc2ccccc2n1)N1CCC(n2cc(-c3nc(-c4ccccc4)no3)nn2)C1 (configuration not stated) -1.75%
COc1ccc(CN2C(=Nc3ccc(Cl)cc3)S[C@H]3[C@@H]2[C@@H](O)[C@H](O)C[C@@H]3C(N)=O)cc1 0.666%
O=C(c1ccn[nH]1)N1CCCCC1c1nc(CCOCC2CCCC2)no1 (configuration not stated) 17%
O=C1NCCC[C@@H]1NC(=O)[C@H]1CN(C(=O)NC2CCCCC2)CCN1S(=O)(=O)c1ccc(F)cc1 12.8%
COCCN1Cc2nc(-c3ccsc3)ccc2OCC1=O 9.78% [at 57.5 µM]
CN1CCN(Cc2nnc(C(=O)N3CCC[C@@H]3c3ccc(Br)cc3)n2Cc2ccccc2)CC1 10.5%
O=C(O)CCC(=O)N1CCC2(CC1)C(=O)NCN2C(=O)Cc1c[nH]c2ccccc12 -1.84%
N#Cc1cccnc1N1CCN(c2nccc(N3CCCC(O)C3)n2)CC1 (configuration not stated) 1.11%
O=c1cc(-c2cccnc2)nc(-c2cccc(CN3CCNCC3)c2)[nH]1 32.1%
O=C(NC1CCCC1)NC1CCN(c2nc3ncccc3o2)C1 (configuration not stated) 41.7% [at 57.5 µM]
O=C(NCc1cccc(F)c1)c1nc2c(o1)CCN(CC1CCCC1)CC2 1.01% [at 57.5 µM]
Cc1ccc(S(=O)(=O)N2CCCC(CNC(=O)c3cccs3)C2)cc1 (configuration not stated) 2.18%
O=C1CN(Cc2ccc(-c3ccsc3)cc2)CCN1c1cc(Cl)ncn1 9.95%
O=C1CC(c2nc(-c3ccc4nc[nH]c4c3)no2)CN1Cc1cccnc1 (configuration not stated) 4.49%
CCOC(=O)N1CCN(C(=O)c2sc(C(C)C)nc2C)CC1 10.5%
Cc1cccc(NC(=O)N2CCCC(Cc3noc(-c4cnccn4)n3)C2)c1 (configuration not stated) -0.269%
CC(C)N1C(=O)C2(CCCC2)C1C(=O)Nc1ccncc1 (configuration not stated) 5.87%
Cc1n[nH]c(C)c1CNc1cc(C2CC(O)C2)ncn1 (configuration not stated) -2.08%
CN(Cc1ccc(-n2cccn2)cc1)CC1CCN(CCc2ccc(F)cc2)CC1 -0.832%
CC1(C(=O)Nc2ccccc2F)COCc2cnc(Nc3ccccc3)nc21 (configuration not stated) 9.93% [at 57.5 µM]
O=[S+]([O-])(c1cccc(C(F)(F)F)c1)N1CC(CNc2cccnc2)C2(CN(c3ccccc3)C2)C1 (configuration not stated) 13.3%
c1ccc(CN2CCC[C@H]2c2nc(-c3ccnc(N4CCOCC4)c3)no2)nc1 -8.59% [at 57.5 µM]
COc1ccc(CC(=O)N2C[C@@H]3C[C@H](C2)c2c(-c4ccc(NC(C)=O)cc4)ccc(=O)n2C3)cc1 6.04%
COc1ccc(CNC(=O)[C@H]2O[C@H](CCN(C)CCc3ccccc3)CC[C@@H]2O)cc1 0.758% [at 57.5 µM]
Cc1noc(C)c1S(=O)(=O)N1CC(n2cnnc2C2CCCO2)C1 (configuration not stated) -1.51%
CCN(C(=O)CCC(=O)N1CCC(C)(c2noc(C)n2)CC1)c1ccccc1 -0.293%
Cc1cccc(-c2ocnc2C(=O)N2CC[C@H](CO)[C@H](NC(=O)C3CC3)C2)c1 8.07%
Cc1ccc(-c2cn3c(n2)N(S(C)(=O)=O)CCC3)cc1 1.8%
COc1ccc(Cc2nc3nccc(-c4cc5ccccc5o4)n3n2)cc1 0.203%
COCCn1c(C)cnc1CC1CCN(C(=O)C2CC2)CC1 0.385%
CC(=O)N1CCC(N2C[C@@H]3OCC(=O)N(Cc4ccccn4)[C@@H]3C2)CC1 2.96% [at 57.5 µM]
CN1CC2(CCN(Cc3ccc(-c4ccc(Cl)cc4)o3)C2)OC1=O (configuration not stated) 30.2%
COc1ccc2nc(C[C@@H]3C[C@@H](C(C)C)[C@H](CNC(=O)NC4CCCCC4)C=C3C)[nH]c2c1 -1.68%
COc1cccc(CCc2ccccc2C(=O)N2CC[C@H](CO)[C@@H](O)C2)c1 0.647%
COc1ccc(Cn2c3c(c(=O)n2Cc2ccccc2)CCN(C(=O)CCc2cccnc2)C3)cc1 -1.23%
Cn1cccc1CN[C@H]1[C@H](O)[C@@H](N2CCCC2)[C@@H]2OC[C@H]1O2 0.388% [at 57.5 µM]
CCOc1cc(C)c(CN2CCCC(O)(CN(C)C)C2)cc1C(C)C (configuration not stated) -9.93%
COc1ccc(C(=O)N[C@H]2COC[C@H]2Cc2cc(C)no2)c(OC)n1 15.4%

Already shown: entries from further up.
Activity % (negative = inhibition), inactive:
O=C(NC1CCCC1)NC1CCN(c2nc3ncccc3o2)C1 (configuration not stated) 41.7% [at 57.5 µM]
O=C(NCc1cccc(F)c1)c1nc2c(o1)CCN(CC1CCCC1)CC2 1.01% [at 57.5 µM]
Cc1ccc(S(=O)(=O)N2CCCC(CNC(=O)c3cccs3)C2)cc1 (configuration not stated) 2.18%
O=C1CN(Cc2ccc(-c3ccsc3)cc2)CCN1c1cc(Cl)ncn1 9.95%
O=C1CC(c2nc(-c3ccc4nc[nH]c4c3)no2)CN1Cc1cccnc1 (configuration not stated) 4.49%
